In paper PMC8241731:
These are yes or no findings as the source states them, for the method shown. In cells and extracts the contact can be indirect. Some results given as binding are weak or reduced against the parent protein; the word gives no strength.

T1: Rac GTPase activating protein 1 (human (endogenous in NOZ and GBC-SD)) (UniProt Q9H0H5)
T1 sequence: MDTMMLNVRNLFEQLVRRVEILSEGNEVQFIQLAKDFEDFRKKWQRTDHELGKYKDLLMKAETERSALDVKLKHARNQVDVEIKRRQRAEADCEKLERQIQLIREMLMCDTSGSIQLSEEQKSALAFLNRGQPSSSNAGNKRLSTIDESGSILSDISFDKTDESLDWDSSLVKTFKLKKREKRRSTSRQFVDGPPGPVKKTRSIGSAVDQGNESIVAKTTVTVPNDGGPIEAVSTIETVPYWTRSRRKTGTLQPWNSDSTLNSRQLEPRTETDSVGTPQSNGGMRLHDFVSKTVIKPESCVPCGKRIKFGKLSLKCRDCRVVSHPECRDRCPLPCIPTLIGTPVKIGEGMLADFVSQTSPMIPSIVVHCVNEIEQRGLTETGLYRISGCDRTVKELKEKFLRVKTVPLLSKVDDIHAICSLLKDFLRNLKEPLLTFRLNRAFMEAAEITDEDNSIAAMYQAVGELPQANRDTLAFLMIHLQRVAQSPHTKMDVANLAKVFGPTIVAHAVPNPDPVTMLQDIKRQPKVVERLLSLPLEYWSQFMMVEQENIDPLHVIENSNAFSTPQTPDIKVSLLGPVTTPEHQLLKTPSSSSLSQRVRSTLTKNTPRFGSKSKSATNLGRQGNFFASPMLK

T2: DNA ligase 3 (human (endogenous in NOZ and GBC-SD)) (UniProt P49916)
T2 sequence: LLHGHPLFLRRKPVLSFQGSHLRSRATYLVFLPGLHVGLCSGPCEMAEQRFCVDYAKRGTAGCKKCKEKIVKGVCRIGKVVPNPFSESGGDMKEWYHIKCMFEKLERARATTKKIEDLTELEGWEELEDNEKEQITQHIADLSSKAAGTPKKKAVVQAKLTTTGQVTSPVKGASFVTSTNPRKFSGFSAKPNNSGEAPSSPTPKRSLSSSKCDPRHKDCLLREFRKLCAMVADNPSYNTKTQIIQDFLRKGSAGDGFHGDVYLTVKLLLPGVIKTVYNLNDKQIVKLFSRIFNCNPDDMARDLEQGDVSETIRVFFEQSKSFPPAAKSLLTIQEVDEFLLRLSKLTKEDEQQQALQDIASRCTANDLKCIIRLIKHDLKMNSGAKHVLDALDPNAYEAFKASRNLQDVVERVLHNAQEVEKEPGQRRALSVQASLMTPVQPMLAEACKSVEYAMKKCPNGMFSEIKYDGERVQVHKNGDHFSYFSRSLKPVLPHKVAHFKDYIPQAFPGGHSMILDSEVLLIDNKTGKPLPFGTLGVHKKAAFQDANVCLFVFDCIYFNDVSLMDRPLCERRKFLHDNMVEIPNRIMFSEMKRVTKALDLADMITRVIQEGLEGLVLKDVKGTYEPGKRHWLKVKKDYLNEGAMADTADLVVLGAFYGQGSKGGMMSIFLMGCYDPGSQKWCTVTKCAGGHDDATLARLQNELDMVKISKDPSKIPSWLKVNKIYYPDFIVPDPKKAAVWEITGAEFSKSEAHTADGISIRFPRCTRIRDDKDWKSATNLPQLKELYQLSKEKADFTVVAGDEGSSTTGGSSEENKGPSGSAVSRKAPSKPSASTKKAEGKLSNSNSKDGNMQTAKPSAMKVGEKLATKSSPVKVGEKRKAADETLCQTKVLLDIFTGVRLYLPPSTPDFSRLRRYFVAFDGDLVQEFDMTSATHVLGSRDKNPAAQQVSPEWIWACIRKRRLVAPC


What was measured:
[1] = biological target: T1, Rac GTPase activating protein 1 (human (endogenous in NOZ and GBC-SD)); experiment: co-IP; endogenous co-IP; protein G magnetic beads with anti-RACGAP1 or anti-LIG3 antibody (4 h), then NOZ and GBC-SD cell lysates overnight at 4 °C; western blotting
[2] = biological target: T2, DNA ligase 3 (human (endogenous in NOZ and GBC-SD)); experiment: as above

| binding [1] | binding [2] | Binder |
| --- | --- | --- |
| binds | – | DNA ligase 3 (protein, UniProt P49916 43-1009) LLHGHPLFLRRKPVLSFQGSHLRSRATYLVFLPGLHVGLCSGPCEMAEQRFCVDYAKRGTAGCKKCKEKIVKGVCRIGKVVPNPFSESGGDMKEWYHIKCMFEKLERARATTKKIEDLTELEGWEELEDNEKEQITQHIADLSSKAAGTPKKKAVVQAKLTTTGQVTSPVKGASFVTSTNPRKFSGFSAKPNNSGEAPSSPTPKRSLSSSKCDPRHKDCLLREFRKLCAMVADNPSYNTKTQIIQDFLRKGSAGDGFHGDVYLTVKLLLPGVIKTVYNLNDKQIVKLFSRIFNCNPDDMARDLEQGDVSETIRVFFEQSKSFPPAAKSLLTIQEVDEFLLRLSKLTKEDEQQQALQDIASRCTANDLKCIIRLIKHDLKMNSGAKHVLDALDPNAYEAFKASRNLQDVVERVLHNAQEVEKEPGQRRALSVQASLMTPVQPMLAEACKSVEYAMKKCPNGMFSEIKYDGERVQVHKNGDHFSYFSRSLKPVLPHKVAHFKDYIPQAFPGGHSMILDSEVLLIDNKTGKPLPFGTLGVHKKAAFQDANVCLFVFDCIYFNDVSLMDRPLCERRKFLHDNMVEIPNRIMFSEMKRVTKALDLADMITRVIQEGLEGLVLKDVKGTYEPGKRHWLKVKKDYLNEGAMADTADLVVLGAFYGQGSKGGMMSIFLMGCYDPGSQKWCTVTKCAGGHDDATLARLQNELDMVKISKDPSKIPSWLKVNKIYYPDFIVPDPKKAAVWEITGAEFSKSEAHTADGISIRFPRCTRIRDDKDWKSATNLPQLKELYQLSKEKADFTVVAGDEGSSTTGGSSEENKGPSGSAVSRKAPSKPSASTKKAEGKLSNSNSKDGNMQTAKPSAMKVGEKLATKSSPVKVGEKRKAADETLCQTKVLLDIFTGVRLYLPPSTPDFSRLRRYFVAFDGDLVQEFDMTSATHVLGSRDKNPAAQQVSPEWIWACIRKRRLVAPC |
| – | binds | Rac GTPase activating protein 1 (protein, UniProt Q9H0H5 1-632) MDTMMLNVRNLFEQLVRRVEILSEGNEVQFIQLAKDFEDFRKKWQRTDHELGKYKDLLMKAETERSALDVKLKHARNQVDVEIKRRQRAEADCEKLERQIQLIREMLMCDTSGSIQLSEEQKSALAFLNRGQPSSSNAGNKRLSTIDESGSILSDISFDKTDESLDWDSSLVKTFKLKKREKRRSTSRQFVDGPPGPVKKTRSIGSAVDQGNESIVAKTTVTVPNDGGPIEAVSTIETVPYWTRSRRKTGTLQPWNSDSTLNSRQLEPRTETDSVGTPQSNGGMRLHDFVSKTVIKPESCVPCGKRIKFGKLSLKCRDCRVVSHPECRDRCPLPCIPTLIGTPVKIGEGMLADFVSQTSPMIPSIVVHCVNEIEQRGLTETGLYRISGCDRTVKELKEKFLRVKTVPLLSKVDDIHAICSLLKDFLRNLKEPLLTFRLNRAFMEAAEITDEDNSIAAMYQAVGELPQANRDTLAFLMIHLQRVAQSPHTKMDVANLAKVFGPTIVAHAVPNPDPVTMLQDIKRQPKVVERLLSLPLEYWSQFMMVEQENIDPLHVIENSNAFSTPQTPDIKVSLLGPVTTPEHQLLKTPSSSSLSQRVRSTLTKNTPRFGSKSKSATNLGRQGNFFASPMLK |
